Assay results reported in article PMC4658663.

Sequences of proteins named here, by UniProt entry; tags and fusion partners are left off. A change or cut given only in a name is not applied to a line headed by its entry.
UniProt P25100: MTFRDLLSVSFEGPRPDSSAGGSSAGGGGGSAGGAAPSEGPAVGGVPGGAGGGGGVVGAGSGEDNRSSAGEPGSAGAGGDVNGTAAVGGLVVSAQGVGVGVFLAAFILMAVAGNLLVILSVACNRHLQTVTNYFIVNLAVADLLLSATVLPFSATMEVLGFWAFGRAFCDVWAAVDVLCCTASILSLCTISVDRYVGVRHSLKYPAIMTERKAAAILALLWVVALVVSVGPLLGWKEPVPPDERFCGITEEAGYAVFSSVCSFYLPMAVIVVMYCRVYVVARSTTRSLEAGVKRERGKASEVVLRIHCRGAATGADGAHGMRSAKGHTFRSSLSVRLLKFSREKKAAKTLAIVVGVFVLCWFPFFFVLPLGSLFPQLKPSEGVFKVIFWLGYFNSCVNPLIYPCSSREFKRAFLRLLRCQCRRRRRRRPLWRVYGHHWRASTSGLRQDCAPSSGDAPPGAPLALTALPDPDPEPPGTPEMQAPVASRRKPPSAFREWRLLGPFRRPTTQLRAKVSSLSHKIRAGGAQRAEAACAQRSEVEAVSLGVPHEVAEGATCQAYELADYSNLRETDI
UniProt Q14160: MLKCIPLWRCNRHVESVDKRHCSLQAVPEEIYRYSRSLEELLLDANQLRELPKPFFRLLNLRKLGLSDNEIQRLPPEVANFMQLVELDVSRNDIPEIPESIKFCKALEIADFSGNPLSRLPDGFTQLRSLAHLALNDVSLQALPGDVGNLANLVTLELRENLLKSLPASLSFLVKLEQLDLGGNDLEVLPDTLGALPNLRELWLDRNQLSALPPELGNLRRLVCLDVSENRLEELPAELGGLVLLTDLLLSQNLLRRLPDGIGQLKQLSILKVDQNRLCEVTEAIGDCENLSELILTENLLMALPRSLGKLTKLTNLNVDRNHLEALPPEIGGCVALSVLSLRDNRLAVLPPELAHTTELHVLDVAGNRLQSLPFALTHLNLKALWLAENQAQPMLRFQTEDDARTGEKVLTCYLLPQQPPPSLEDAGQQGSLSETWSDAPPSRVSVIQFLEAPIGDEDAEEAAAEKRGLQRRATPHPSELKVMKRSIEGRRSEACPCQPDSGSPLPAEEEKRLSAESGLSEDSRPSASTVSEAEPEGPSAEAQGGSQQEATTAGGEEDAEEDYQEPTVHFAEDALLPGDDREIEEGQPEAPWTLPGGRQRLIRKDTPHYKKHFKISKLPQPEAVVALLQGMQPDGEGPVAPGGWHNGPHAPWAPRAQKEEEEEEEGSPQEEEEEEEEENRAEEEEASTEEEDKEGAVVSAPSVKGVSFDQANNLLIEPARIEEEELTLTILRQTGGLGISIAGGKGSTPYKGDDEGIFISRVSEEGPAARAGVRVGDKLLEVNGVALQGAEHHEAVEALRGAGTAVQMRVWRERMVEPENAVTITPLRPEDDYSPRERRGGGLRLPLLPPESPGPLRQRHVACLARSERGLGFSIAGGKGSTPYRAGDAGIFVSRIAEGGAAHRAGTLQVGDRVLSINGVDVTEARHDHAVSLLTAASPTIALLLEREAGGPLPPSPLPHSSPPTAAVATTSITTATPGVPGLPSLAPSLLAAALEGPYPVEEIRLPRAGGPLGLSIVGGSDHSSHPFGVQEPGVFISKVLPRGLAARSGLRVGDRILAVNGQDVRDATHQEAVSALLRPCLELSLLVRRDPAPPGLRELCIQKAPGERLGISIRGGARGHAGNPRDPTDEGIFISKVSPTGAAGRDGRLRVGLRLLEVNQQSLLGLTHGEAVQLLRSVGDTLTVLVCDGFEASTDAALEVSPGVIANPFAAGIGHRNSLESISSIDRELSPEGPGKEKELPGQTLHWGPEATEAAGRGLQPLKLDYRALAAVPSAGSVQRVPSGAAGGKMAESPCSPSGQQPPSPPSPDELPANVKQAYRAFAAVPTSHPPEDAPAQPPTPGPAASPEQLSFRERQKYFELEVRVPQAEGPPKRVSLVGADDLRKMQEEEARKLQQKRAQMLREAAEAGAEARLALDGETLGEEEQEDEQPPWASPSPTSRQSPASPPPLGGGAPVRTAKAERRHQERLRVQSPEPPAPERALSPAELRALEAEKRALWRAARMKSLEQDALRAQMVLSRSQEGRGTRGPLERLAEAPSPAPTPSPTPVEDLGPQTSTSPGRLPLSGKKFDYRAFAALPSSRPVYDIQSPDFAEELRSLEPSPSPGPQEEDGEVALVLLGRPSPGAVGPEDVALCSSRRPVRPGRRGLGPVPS

Tests used:
TAP–ADRA1D-ΔPDZ (human) [1] = biological target: TAP–ADRA1D-ΔPDZ (human) (UniProt P25100); test: pull-down; TAP-tagged bait purified from cleared cell lysate (0.5% digitonin, 75 mM Tris pH 8.0, 2 mM EDTA, 5 mM MgCl2, 1 mM DTT) on streptavidin sepharose, 3 h at 4 °C; western blot
TAP–ADRA1D-ΔPDZ (human) [2] = biological target: TAP–ADRA1D-ΔPDZ (human) (UniProt P25100); test: pull-down; as a7, with Myc–ADRA1D co-expressed with the TAP-tagged bait; western blot

| Substance | binding (TAP–ADRA1D-ΔPDZ (human) [1]) | binding (TAP–ADRA1D-ΔPDZ (human) [2]) |
| --- | --- | --- |
| Scribble (SCRIB), endogenous (from UniProt Q14160 1-1655) | no binding | no binding |
| Myc–ADRA1D (from UniProt P25100 1-572) (receptor) | – | binds |

No constants are given. Whether binding was seen depends on the method and setting. Binding seen in cells or lysates may run through a third protein. For part of these data: Binding calls can cover weak binding; strength is not graded here.
